SMILES strings stand for the structures. The list is a part of this screen's results and no random one: it gathers tests that were run many times, whatever their T/C, doses with no T/C, and many T/C values between a quarter and a half above the control. Other doses and runs of a compound stand elsewhere. T/C gives the treated animals as a percentage of the vehicle group. Schedules are NCI's codes, taken here to give the interval after Q, in days (D) or hours (H), and the number of doses after X. Some entries were tested several times; the results are listed from low to high. Some T/C values are followed by the survivors on the day toxicity was checked, most often the fifth; without a count, all were alive then. Some doses have a count of surviving animals in place of a T/C: the source files T/C as zero there, which appears to mark a toxic dose or a test without result, not a measured value. Some survivor counts are full or nearly so, which does not show that the dose was tolerated: the source hardly ever lists a survival T/C far under the control, and the zero likely stands for such cases as well. Counts of survivors are from the toxicity check (mostly the fifth day) where no day follows; animals may have died later. Additions like (4×) give the number of equal values in this list. For survival time, the PubChem record calls one and a half times the control and up active, and a quarter to a half above the control has no call in these data; cut-offs in other NCI protocols can differ. Where a SMILES comes first, the peptide text is derived from it. Bridges are numbered along the chain shown (N, C = ends).

This assay deals with BDF1 mice, colon carcinoma 38 sc, T/C %. In words: NCI In Vivo Anticancer Drug Screen. Data for tumor model Colon Carcinoma 38 (subcutaneous) in B6D2F1 (BDF1) mice. The gist of the method:
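Compound antitumor activity was assessed in mice carrying transplantable tumors. Survival or tumor size was recorded, and each value is the treated-group measurement divided by that of the vehicle-treated control group.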

Setting [1] is: T/C endpoint: median tumor weight (est.), dose: 400.0 mg/kg/injection, schedule: Q07DX002 (ip), vehicle: saline, higher T/C = larger tumour.
The mark [2] stands for this setting: T/C endpoint: median tumor weight (est.), dose: 800.0 mg/kg/injection, schedule: Q07DX002 (ip), vehicle: saline, higher T/C = larger tumour.
Where [3] appears, read: T/C endpoint: median tumor weight (est.), dose: 50.0 mg/kg/injection, schedule: Q07DX002 (ip), vehicle: Klucel (hydroxypropylcellulose) (HPC), evaluated on day 20, higher T/C = larger tumour.
Where [4] appears, read: T/C endpoint: median tumor weight (est.), dose: 200.0 mg/kg/injection, schedule: Q07DX002 (ip), vehicle: Klucel (hydroxypropylcellulose) (HPC), evaluated on day 20, higher T/C = larger tumour.
Where [5] appears, read: T/C endpoint: median tumor weight (est.), dose: 400.0 mg/kg/injection, schedule: Q07DX002 (ip), vehicle: Klucel (hydroxypropylcellulose) (HPC), higher T/C = larger tumour.
Where [6] appears, read: T/C endpoint: median tumor weight (est.), dose: 200.0 mg/kg/injection, schedule: Q07DX002 (ip), vehicle: saline with Tween-80, evaluated on day 20, higher T/C = larger tumour.
[7] abbreviates: T/C endpoint: median tumor weight (est.), dose: 25.0 mg/kg/injection, schedule: Q07DX002 (ip), vehicle: saline with Tween-80, evaluated on day 20, higher T/C = larger tumour.
Setting [8] is: T/C endpoint: median tumor weight (est.), dose: 50.0 mg/kg/injection, schedule: Q07DX002 (ip), vehicle: saline with Tween-80, evaluated on day 20, higher T/C = larger tumour.
The mark [9] stands for this setting: T/C endpoint: median tumor weight (est.), dose: 25.0 mg/kg/injection, schedule: Q07DX002 (ip), vehicle: saline, evaluated on day 20, higher T/C = larger tumour.

Regarding `NC(C/[N+]([O-])=N/O)C(=O)O` (stereo unspecified), the T/C by setting is: (T/C endpoint: median survival time, dose: 8.78 mg/kg/injection, schedule: Q01DX010 (ip), vehicle: alkali diluted with saline, evaluated on day 33, higher T/C = longer survival) 113 % of control; (T/C endpoint: median survival time, dose: 8.78 mg/kg/injection, schedule: Q01DX010 (ip), vehicle: alkali diluted with saline, evaluated on day 41, higher T/C = longer survival) 88 % of control; (T/C endpoint: median survival time, dose: 8.78 mg/kg/injection, schedule: Q01DX010 (ip), vehicle: alkali diluted with saline, evaluated on day 80, higher T/C = longer survival) 88 % of control; (T/C endpoint: median survival time, dose: 8.78 mg/kg/injection, schedule: Q01DX010 (ip), vehicle: alkali diluted with saline, evaluated on day 90, higher T/C = longer survival) 114 % of control; (T/C endpoint: median survival time, dose: 13.2 mg/kg/injection, schedule: Q01DX010 (ip), vehicle: alkali diluted with saline, evaluated on day 33, higher T/C = longer survival) 122 % of control; (T/C endpoint: median survival time, dose: 13.2 mg/kg/injection, schedule: Q01DX010 (ip), vehicle: alkali diluted with saline, evaluated on day 41, higher T/C = longer survival) 93 % of control. The T/C was 92 % of control (T/C endpoint: median survival time, dose: 13.2 mg/kg/injection, schedule: Q01DX010 (ip), vehicle: alkali diluted with saline, evaluated on day 80, higher T/C = longer survival); 123 % of control (T/C endpoint: median survival time, dose: 13.2 mg/kg/injection, schedule: Q01DX010 (ip), vehicle: alkali diluted with saline, evaluated on day 90, higher T/C = longer survival); 110 % of control (T/C endpoint: median survival time, dose: 19.8 mg/kg/injection, schedule: Q01DX010 (ip), vehicle: alkali diluted with saline, evaluated on day 33, higher T/C = longer survival); 117 % of control (T/C endpoint: median survival time, dose: 19.8 mg/kg/injection, schedule: Q01DX010 (ip), vehicle: alkali diluted with saline, evaluated on day 41, higher T/C = longer survival); 116 % of control (T/C endpoint: median survival time, dose: 19.8 mg/kg/injection, schedule: Q01DX010 (ip), vehicle: alkali diluted with saline, evaluated on day 80, higher T/C = longer survival); 114 % of control (T/C endpoint: median survival time, dose: 19.8 mg/kg/injection, schedule: Q01DX010 (ip), vehicle: alkali diluted with saline, evaluated on day 90, higher T/C = longer survival). In addition, the T/C was 134 % of control [9 of 10 alive on day 33] (T/C endpoint: median survival time, dose: 29.6 mg/kg/injection, schedule: Q01DX010 (ip), vehicle: alkali diluted with saline, evaluated on day 33, higher T/C = longer survival); 102 % of control (T/C endpoint: median survival time, dose: 29.6 mg/kg/injection, schedule: Q01DX010 (ip), vehicle: alkali diluted with saline, evaluated on day 41, higher T/C = longer survival); 102 % of control (T/C endpoint: median survival time, dose: 29.6 mg/kg/injection, schedule: Q01DX010 (ip), vehicle: alkali diluted with saline, evaluated on day 80, higher T/C = longer survival); 132 % of control (T/C endpoint: median survival time, dose: 29.6 mg/kg/injection, schedule: Q01DX010 (ip), vehicle: alkali diluted with saline, evaluated on day 90, higher T/C = longer survival); 140 % of control [9 of 10 alive on day 33] (T/C endpoint: median survival time, dose: 44.4 mg/kg/injection, schedule: Q01DX010 (ip), vehicle: alkali diluted with saline, evaluated on day 33, higher T/C = longer survival); 91 % of control (T/C endpoint: median survival time, dose: 44.4 mg/kg/injection, schedule: Q01DX010 (ip), vehicle: alkali diluted with saline, evaluated on day 41, higher T/C = longer survival). In addition, the T/C runs as follows: (T/C endpoint: median survival time, dose: 44.4 mg/kg/injection, schedule: Q01DX010 (ip), vehicle: alkali diluted with saline, evaluated on day 80, higher T/C = longer survival) 92 % of control; (T/C endpoint: median survival time, dose: 44.4 mg/kg/injection, schedule: Q01DX010 (ip), vehicle: alkali diluted with saline, evaluated on day 90, higher T/C = longer survival) 141 % of control. Further, the survivor count was 4 of 10 on day 33, 5 of 10 on day 41, 9 of 10, 10 of 10 (T/C endpoint: median survival time, dose: 66.7 mg/kg/injection, schedule: Q01DX010 (ip), vehicle: alkali diluted with saline, higher T/C = longer survival); 0 of 10 on day 33, 0 of 10 on day 41, 10 of 10 (2×) (T/C endpoint: median survival time, dose: 100.0 mg/kg/injection, schedule: Q01DX010 (ip), vehicle: alkali diluted with saline, higher T/C = longer survival); 10 of 10 (T/C endpoint: median survival time, dose: 600.0 mg/kg/injection, schedule: Q04DX005 (ip), vehicle: alkali diluted with saline, higher T/C = longer survival).

Regarding `CCCC(=O)O`, where the note is “T/C endpoint: median tumor weight (est.), dose: 100.0 mg/kg/injection, schedule: Q07DX002 (ip), vehicle: saline, evaluated on day 20, higher T/C = larger tumour”, the T/C was 138 % of control. Besides, the survivor count by setting is: under setting [1], 5 of 10 on day 20; under setting [2], 1 of 10 on day 20.

In the case of `Cc1ccc2c(ccc(CC(=S)[S-])[n+]2C)c1`, the T/C runs as follows: (T/C endpoint: median tumor weight (est.), dose: 6.25 mg/kg/injection, schedule: Q07DX002 (ip), vehicle: Klucel (hydroxypropylcellulose) (HPC), evaluated on day 20, higher T/C = larger tumour) 148 % of control; under setting [3], 127 [9 of 10 alive on day 20] and 143 % of control; under setting [4], 132 % of control [8 of 10 alive on day 20]. Besides, the survivor count under setting [5] is reported as 5 of 10 on day 20.

In the case of `O=C(Nc1nncs1)c1ccncc1`, the T/C reads like this: (T/C endpoint: median tumor weight (est.), dose: 100.0 mg/kg/injection, schedule: Q07DX002 (ip), vehicle: saline with Tween-80, evaluated on day 20, higher T/C = larger tumour) 128 % of control; under setting [6], 125 % of control.

Regarding `O=C(N/N=C\c1cc(Br)cc(Br)c1O)N/N=C/c1cc(Br)cc(Br)c1O`, the T/C is 146 % of control under setting [7] and 131 % of control under setting [8].

Regarding `CN(C)N=Nc1cn[nH]c1C(N)=O`, the T/C (T/C endpoint: median tumor weight (est.), dose: 25.0 mg/kg/injection, schedule: Q07DX002 (ip), vehicle: Klucel (hydroxypropylcellulose) (HPC), evaluated on day 20, higher T/C = larger tumour) is 98, 127, 158 % of control; the T/C under setting [3] was 46, 145, 184 % of control; the T/C (T/C endpoint: median tumor weight (est.), dose: 100.0 mg/kg/injection, schedule: Q07DX002 (ip), vehicle: Klucel (hydroxypropylcellulose) (HPC), evaluated on day 20, higher T/C = larger tumour) was 40, 95, 219 % of control [9 of 10 alive on day 20]; the T/C under setting [4] was 25 [9 of 10 alive on day 20], 57, 84 % of control. Also, the survivor count was 4 of 10 on day 20 and 5 of 10 on day 20 under setting [5]; 0 of 10 on day 20 (T/C endpoint: median tumor weight (est.), dose: 800.0 mg/kg/injection, schedule: Q07DX002 (ip), vehicle: Klucel (hydroxypropylcellulose) (HPC), higher T/C = larger tumour).

In the case of `O=C[C@@H](CO)O[C@H](C=O)c1c[nH]c(=O)[nH]c1=O`, the T/C under setting [9] is 142 % of control.

For the compound `NC1=NC(=O)N2CC12` (stereo unspecified), the T/C under setting [9] was 127 % of control [9 of 10 alive on day 20]. In addition, the survivor count is, setting by setting: under setting [1], 4 of 10 on day 20; under setting [2], 0 of 10 on day 20 and 1 of 10 on day 20.

Regarding `C/C=C(\C)c1cc(=O)c2c(C)cc3c(c2o1)C(=O)c1c(O)c(C2CC(C)(N(C)C)C(OC(C)=O)C(C)O2)cc(C2CC(N(C)C)C(O)C(C)O2)c1C3=O` (stereo unspecified), under “T/C endpoint: median tumor weight (est.), dose: 5.0 mg/kg/injection, schedule: Q07DX002 (ip), vehicle: saline, higher T/C = larger tumour”, the survivor count is on record as 4 of 10 on day 20.

Turning to `CCC(C)C1NC(=O)C(CC(C)C)NC(=O)C(C(C)C)NC(=O)C2CSSCC(NC1=O)C(=O)N2` (stereo unspecified) (cyclo(CCVLI); disulfide 1-2; configuration not given here), the T/C by setting is: (T/C endpoint: median tumor weight (est.), dose: 512.5 micrograms/kg/injection, schedule: Q07DX002 (ip), vehicle: Klucel (hydroxypropylcellulose) (HPC), evaluated on day 20, higher T/C = larger tumour) 139 % of control; (T/C endpoint: median tumor weight (est.), dose: 1025.0 micrograms/kg/injection, schedule: Q07DX002 (ip), vehicle: Klucel (hydroxypropylcellulose) (HPC), evaluated on day 20, higher T/C = larger tumour) 144 % of control; (T/C endpoint: median tumor weight (est.), dose: 2050.0 micrograms/kg/injection, schedule: Q07DX002 (ip), vehicle: Klucel (hydroxypropylcellulose) (HPC), evaluated on day 20, higher T/C = larger tumour) 144 % of control; (T/C endpoint: median tumor weight (est.), dose: 4100.0 micrograms/kg/injection, schedule: Q07DX002 (ip), vehicle: Klucel (hydroxypropylcellulose) (HPC), evaluated on day 20, higher T/C = larger tumour) 146 % of control.

Regarding `Nc1ncnc2c1ncn2C1OC(COS(N)(=O)=O)C(O)C1O` (stereo unspecified), the survivor count reads like this: (T/C endpoint: median survival time, dose: 1.0 mg/kg/injection, schedule: Q02DX004 (sc), vehicle: saline, higher T/C = longer survival) 0 of 3 on day 22; (T/C endpoint: median survival time, dose: 2.0 mg/kg/injection, schedule: Q02DX004 (sc), vehicle: saline, higher T/C = longer survival) 0 of 3 on day 22; (T/C endpoint: median survival time, dose: 4.0 mg/kg/injection, schedule: Q02DX004 (sc), vehicle: saline, higher T/C = longer survival) 0 of 3 on day 22.

For the compound `Nc1nc(-c2cccc3ccccc23)cc2ccccc12`, the T/C is 125 % of control (T/C endpoint: median tumor weight (est.), dose: 12.5 mg/kg/injection, schedule: Q07DX002 (ip), vehicle: saline with Tween-80, evaluated on day 20, higher T/C = larger tumour); 129 % of control under setting [7]; 145 % of control under setting [8]; 126 % of control [9 of 10 alive on day 20] under setting [6].

Source of the values: PubChem BioAssay AID212 (DTP/NCI, 2004).
